# PubChem BioAssay AID1117269 – University of Michigan | 2014
# Purpose: 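Kinases whose silencing alters a TGF-beta responsive luciferase reporter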 (primary screen)
# Cells: human A549 lung cancer and 1833 breast cancer (MDA-MB-231-derived) cell lines carrying a stable BTR luciferase reporter
# Reagent: siRNA pool against human genes
# Time to read-out: 72 h after transfection, then 1 h TGF-beta before the read
# Conditions: TGF-beta 10 ng/mL added one hour before luciferin and read-out
# Measurement: 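BTR reporter bioluminescence as fold change relative to non-targeting siRNA, averaging triplicates per line; knockdown for 72 h, then TGF-beta at 10 ng/mL 1 h prior to reading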
# Scale: fold over scrambled siRNA, A549 and fold over scrambled siRNA, 1833: higher = more reporter light, weaker TGF-beta receptor signalling
# Hit rule: 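Active if a hit in A549 or 1833; a line's hit exceeds an upper quartile-based cutoff on mean log fold values, applied per plate and across the whole screen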
# Meaning of the calls: active = hit in at least one line; inactive = hit in neither line
# The whole screen tested 714 reagents; this is an unselected part. Over the whole deposit, 49 (6.9%) were called active. 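Active means a hit in at least one line; per-line hit columns show which; some siRNA pools appear more than once.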 Reagents against one gene are numbered here. Not given: the amount of reagent.
Gene,reagent no.,"fold over scrambled siRNA, A549","fold over scrambled siRNA, 1833",hit in A549,hit in 1833,activity call
PKIB,1,2.49,1.3,not a hit in A549,not a hit in 1833,inactive
CAMK1D,1,1.86,1.34,not a hit in A549,not a hit in 1833,inactive
MAP4K5,1,3.57,6.29,not a hit in A549,not a hit in 1833,inactive
PRKD3,1,3.48,6.71,not a hit in A549,not a hit in 1833,inactive
ILK,1,1.58,5.03,not a hit in A549,not a hit in 1833,inactive
ILK,2,1.24,3,not a hit in A549,not a hit in 1833,inactive
FGFR1,1,3.07,1.48,not a hit in A549,not a hit in 1833,inactive
EFNB3,1,0.429,3.33,not a hit in A549,not a hit in 1833,inactive
DLG2,1,1.06,0.63,not a hit in A549,not a hit in 1833,inactive
PTK2B,1,1.35,1.47,not a hit in A549,not a hit in 1833,inactive
CDK19,1,1,4.87,not a hit in A549,not a hit in 1833,inactive
KCNH2,1,0.667,0.556,not a hit in A549,not a hit in 1833,inactive
FCSK,1,0.615,1.36,not a hit in A549,not a hit in 1833,inactive
PRKD1,1,1.62,1.76,not a hit in A549,not a hit in 1833,inactive
MAP4K1,1,0.798,1.74,not a hit in A549,not a hit in 1833,inactive
PIK3R1,1,1.76,2.62,not a hit in A549,not a hit in 1833,inactive
IPMK,1,1.86,10,not a hit in A549,not a hit in 1833,inactive
NTRK2,1,1.1,2.95,not a hit in A549,not a hit in 1833,inactive
TNK2,1,2.02,1.05,not a hit in A549,not a hit in 1833,inactive
STK3,1,1.07,5.13,not a hit in A549,not a hit in 1833,inactive
SRP72,1,1.89,6.79,not a hit in A549,not a hit in 1833,inactive
PHKG1,1,1.44,3.54,not a hit in A549,not a hit in 1833,inactive
NME5,1,6.06,3.93,hit in A549,not a hit in 1833,active
AK1,1,1.63,1.13,not a hit in A549,not a hit in 1833,inactive
KIT,1,2.11,1.4,not a hit in A549,not a hit in 1833,inactive
NEK3,1,1.1,3.48,not a hit in A549,not a hit in 1833,inactive
PDGFRB,1,1.09,0.589,not a hit in A549,not a hit in 1833,inactive
MAPKAPK2,1,0.788,1.36,not a hit in A549,not a hit in 1833,inactive
IKBKE,1,0.672,1.44,not a hit in A549,not a hit in 1833,inactive
TRIO,1,1.38,2.6,not a hit in A549,not a hit in 1833,inactive
ADCK5,1,2.88,2.79,not a hit in A549,not a hit in 1833,inactive
EPHA10,1,2.68,4.93,not a hit in A549,not a hit in 1833,inactive
PRKCE,1,1.6,2.53,not a hit in A549,not a hit in 1833,inactive
PKLR,1,5.39,1.3,hit in A549,not a hit in 1833,
FN3KRP,1,1.01,0.476,not a hit in A549,not a hit in 1833,inactive
MYLK2,1,0.69,1.33,not a hit in A549,not a hit in 1833,inactive
ACVR1C,1,2.46,4.87,not a hit in A549,not a hit in 1833,inactive
GRK4,1,1.94,2.99,not a hit in A549,not a hit in 1833,inactive
CRKL,1,5.71,6.1,hit in A549,not a hit in 1833,active
LYN,1,2.48,3.07,not a hit in A549,not a hit in 1833,inactive
TAF1,1,1.05,6.24,not a hit in A549,not a hit in 1833,inactive
SGK3,1,4.9,8.14,not a hit in A549,not a hit in 1833,inactive
ETNK2,1,1.02,7.19,not a hit in A549,not a hit in 1833,inactive
UCK2,1,3.33,6.2,not a hit in A549,not a hit in 1833,inactive
NEK11,1,2.83,4.07,not a hit in A549,not a hit in 1833,inactive
PHKG2,1,3.57,6.76,not a hit in A549,not a hit in 1833,inactive
WNK3,1,1.51,4.27,not a hit in A549,not a hit in 1833,inactive
ARAF,1,1.98,2.61,not a hit in A549,not a hit in 1833,inactive
PKN2,1,1.26,6.14,not a hit in A549,not a hit in 1833,inactive
CSNK1G2,1,4.52,7.14,not a hit in A549,not a hit in 1833,inactive
IKBKG,1,2.46,0.741,not a hit in A549,not a hit in 1833,inactive
SCYL1,1,2.29,6.37,not a hit in A549,not a hit in 1833,inactive
PNCK,1,5.08,4.37,not a hit in A549,not a hit in 1833,inactive
ITPK1,1,0.999,1.18,not a hit in A549,not a hit in 1833,inactive
SLK,1,2.48,5.56,not a hit in A549,not a hit in 1833,inactive
PFKM,1,1.95,2.38,not a hit in A549,not a hit in 1833,inactive
ROR1,1,1.23,1.3,not a hit in A549,not a hit in 1833,inactive

Limited to “fold over scrambled siRNA, 1833” (4 entries from above):
UCK2	6.2
NEK11	4.07
PHKG2	6.76
WNK3	4.27
